According to WO2011158973A1 (dated 2011):
These are yes or no findings as the source states them, for the method shown. Some results given as binding are weak or reduced against the parent protein; the word gives no strength.

T1: mouse fibrin (mouse) (UniProt E9PV24+Q8K0E8+Q8VCM7)
T1 sequence (looked up) 1: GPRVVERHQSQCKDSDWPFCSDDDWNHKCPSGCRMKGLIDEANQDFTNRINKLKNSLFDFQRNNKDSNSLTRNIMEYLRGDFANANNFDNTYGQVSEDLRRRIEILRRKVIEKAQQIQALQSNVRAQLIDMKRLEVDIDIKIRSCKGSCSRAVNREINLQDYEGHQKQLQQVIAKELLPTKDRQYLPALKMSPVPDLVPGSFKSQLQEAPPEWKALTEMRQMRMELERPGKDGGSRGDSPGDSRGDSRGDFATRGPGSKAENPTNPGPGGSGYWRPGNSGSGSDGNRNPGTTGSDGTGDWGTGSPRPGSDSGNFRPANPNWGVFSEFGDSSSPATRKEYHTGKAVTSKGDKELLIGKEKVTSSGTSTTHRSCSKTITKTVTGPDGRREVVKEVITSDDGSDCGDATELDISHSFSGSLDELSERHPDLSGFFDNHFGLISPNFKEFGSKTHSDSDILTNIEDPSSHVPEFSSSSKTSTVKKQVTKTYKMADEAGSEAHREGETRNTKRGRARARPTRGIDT
T1 sequence (looked up) 2: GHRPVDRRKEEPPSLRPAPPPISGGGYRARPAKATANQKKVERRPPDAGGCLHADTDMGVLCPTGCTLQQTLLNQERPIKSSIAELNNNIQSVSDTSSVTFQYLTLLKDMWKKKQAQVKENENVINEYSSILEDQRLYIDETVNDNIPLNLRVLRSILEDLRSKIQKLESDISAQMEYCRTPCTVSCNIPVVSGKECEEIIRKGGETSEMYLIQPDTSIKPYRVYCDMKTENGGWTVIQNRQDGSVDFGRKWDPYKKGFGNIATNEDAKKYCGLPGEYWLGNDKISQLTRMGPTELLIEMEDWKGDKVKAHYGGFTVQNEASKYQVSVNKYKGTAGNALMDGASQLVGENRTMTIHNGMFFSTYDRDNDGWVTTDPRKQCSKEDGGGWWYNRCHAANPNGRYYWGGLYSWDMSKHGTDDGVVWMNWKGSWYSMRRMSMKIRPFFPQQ
T1 sequence (looked up) 3: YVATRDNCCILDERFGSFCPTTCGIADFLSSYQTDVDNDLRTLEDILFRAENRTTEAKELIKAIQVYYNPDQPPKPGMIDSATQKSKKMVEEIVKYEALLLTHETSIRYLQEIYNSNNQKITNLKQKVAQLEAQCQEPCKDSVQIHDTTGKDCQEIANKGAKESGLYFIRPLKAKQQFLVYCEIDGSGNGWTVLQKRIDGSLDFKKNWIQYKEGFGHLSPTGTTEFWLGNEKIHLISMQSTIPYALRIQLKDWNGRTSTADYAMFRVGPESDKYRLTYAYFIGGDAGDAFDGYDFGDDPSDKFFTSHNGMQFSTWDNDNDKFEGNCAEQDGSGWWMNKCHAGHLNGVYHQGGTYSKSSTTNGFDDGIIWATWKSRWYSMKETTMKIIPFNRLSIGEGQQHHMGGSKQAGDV


What was measured:
[1] = molecular target: T1, mouse fibrin (mouse); assay: ELISA, hybridoma 102-10 culture supernatant on fibrin plate (Fig. 1C)
[2] = molecular target: T1, mouse fibrin (mouse); assay: immunostaining of sections of mouse chemically induced invasive squamous cell carcinoma (Fig. 6B)
[3] = molecular target: T1, mouse fibrin (mouse); assay: ELISA, purified chimeric antibody on fibrin plate (Fig. 3)

binding [1] | binding [2] | binding [3] | Binder
binds | binds | – | mouse anti-fibrin IgM antibody produced by hybridoma cell line 102-10 (accession number NITE BP-923) (antibody, V domains shown, Mouse IgM; Tested as hybridoma culture supernatant in ELISA; also called clone 102-10; mouse IgM antibody) VH: QIQLVQSGPELKKPGETVKISCKASGYTFTNYGMNWVKQAPGKGLKWMGWINTYTGEATYADDFKGRFAFSLETSANTAYVQINNLKNEDTATYFCARLMDYWGQGTSVTVSS VL: DIQMTQSPSSLSASLGGKVTITCKASQDINKYIAWFQHKPGKGPRLLIHYTSTLQPGIPSRFSGSGSGRDYSFSISNLEPEDLATYYCLQYDNLTWTFGGGTKLEIK
– | – | binds | human type anti-fibrin chimeric antibody (human type IgG clone 102-10Hu) (antibody, V domains shown, made in CHO cells, purified on Protein G and hydroxyapatite; They may include a leader peptide; no cleavage site is stated; also called human chimeric antibody; human chimeric anti-fibrin IgG) VH: QIQLVQSGPELKKPGETVKISCKASGYTFTNYGMNWVKQAPGKGLKWMGWINTYTGEATYADDFKGRFAFSLETSANTAYVQINNLKNEDTATYFCARLMDYWGQGTSVTVSS VL: DIQMTQSPSSLSASLGGKVTITCKASQDINKYIAWFQHKPGKGPRLLIHYTSTLQPGIPSRFSGSGSGRDYSFSISNLEPEDLATYYCLQYDNLTWTFGGGTKLEIK
